Measured values: PubChem BioAssay AID493014 (National Center for Advancing Translational Sciences (NCATS), 2011)
Some of the results follow. Shown are side measurements of this screen, not its main read-out; they come without a call. The list favours compounds with an active or inconclusive main result. Words in brackets tell the shape of the fitted curve; partial curves, single points and poor fits give uncertain potencies.

Assay: qHTS Assay to Find Inhibitors of Chronic Active B-Cell Receptor Signaling
Settings: ABC-DLBCL IkBa-CBG/CBR reporter, luminescence ratio (green luciferase fused to IkBa over red control in TMD8 lymphoma cells), 4 h
Procedure, shortened: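 TMD8 human ABC-DLBCL cells with doxycycline-inducible IκBα–green luciferase fusion and unfused red luciferase, in 0.5% FBS medium; compounds up to 46 uM, 4 h at 37C. Green/red luminescence ratio, filter-overlap corrected, fitted to concentration-response curves.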

[1] = measured here: CBR red luminescence, cell number
[2] = measured here: IkBa-CBG green luminescence

Q: Which AC50 [1] does the source give for `Cc1[nH]n(-c2ccc([N+](=O)[O-])cc2)c(=O)c1C=NCCN1CCN(C(=O)c2ccc(Br)cc2)CC1` here?
A: 5.8 µM [falling, full curve, poor fit]

Q: Which AC50 [1] does the source give for `COC(=O)CSc1nc(N)c(C#N)c(C(C)C)c1C#N` here?
A: 0.794 µM [falling, full curve, poor fit]

Q: Which AC50 [1] does the source give for `O=C(Nc1ccc(N2CCCCC2)cc1)c1ccc([N+](=O)[O-])o1` here?
A: 3.16 µM [rising, partial curve, poor fit]

Q: With `CN(C)S(=O)(=O)c1cccc(NC(=O)C(c2ccccc2)c2ccccc2)c1` as the compound, how does the AC50 [1] read?
A: 35.5 µM [falling, single point]

Q: With `COc1ccccc1/C=C(\NC(=O)c1ccc(OC)c(OC)c1)C(=O)Nc1cccc([N+](=O)[O-])c1` as the compound, how does the AC50 [1] read?
A: 2.31 µM [rising, single point]

Q: For `CCCc1ccc2oc(C(=O)N3CCCC3)c(C)c2c1`, which AC50 [1] is on record?
A: 2.82 µM [rising, partial curve, poor fit]

Q: With `Cc1cccc(C)c1-n1c(C)nn(-c2ncc(C(F)(F)F)cc2Cl)c1=O` as the compound, how does the AC50 [1] read?
A: 35.5 µM [rising, single point]

Q: For `CCOC(=S)SCC(=O)Nc1nc(-c2ccc(Br)cc2)cs1`, which AC50 [2] is on record?
A: 4.61 µM [falling, partial curve, poor fit]

Q: With `Cc1cc(/C=C2\SC(=S)NC2=O)c(C)n1-c1cccc(O)c1` as the compound, how does the AC50 [1] read?
A: 7.94 µM [rising, partial curve, poor fit]

Q: With `CC1(C)COC(Cn2c3ccccc3c3ccccc32)O1` (centres undefined) as the compound, how does the AC50 [1] read?
A: 12.6 µM [rising, single point]

Q: What about the AC50 [2] of the same compound?
A: 17.8 µM [falling, single point]

Q: Which AC50 [1] does the source give for `CCCCSc1nnc2nc(C)cc(C)n12` here?
A: 23.1 µM [rising, partial curve, poor fit]

Q: With `O=S(=O)(c1ccc(NC(=S)NN=C2CCCCC2)cc1)N1CCOCC1` as the compound, how does the AC50 [1] read?
A: 22.4 µM [rising, single point]

Q: And the AC50 [2]?
A: 25.1 µM [falling, single point]

Q: With `C=CCn1c(SCC(=O)Nc2cc(Cl)ccc2C(=O)O)nc2sc(C)c(C)c2c1=O` as the compound, how does the AC50 [1] read?
A: 0.82 µM [falling, full curve]

Q: For `CS(=O)(=O)N1CCN(CC2CC3C=CC2C3)CC1` (centres undefined), which AC50 [1] is on record?
A: 0.058 µM [rising, full curve, poor fit]

Q: With `O=S(=O)(/N=C(/Nc1cccc2ccccc12)c1ccccc1)c1ccc(Br)cc1` as the compound, how does the AC50 [1] read?
A: 15.8 µM [falling, partial curve, poor fit]

Q: For `O=C(NC(CC(=O)N1CCN(c2ccccc2O)CC1)c1ccccc1)c1ccccc1Cl` (centres undefined), which AC50 [1] is on record?
A: 29.1 µM [rising, partial curve, poor fit]

Q: Which AC50 [1] does the source give for `CC(=O)c1cccc(NC(=O)CSc2nc(=O)n(Cc3ccccn3)c3c2CCC3)c1` here?
A: 4.61 µM [falling, full curve, poor fit]

Q: For `COc1ccc2c(c1)c(C(C)=O)c(C)n2C`, which AC50 [1] is on record?
A: 3.16 µM [rising, single point]

Q: For `O=C(CSc1ccccn1)Nc1cccc(NC(=O)CSc2ccccn2)n1`, which AC50 [1] is on record?
A: 5.8 µM [rising, partial curve, poor fit]

Q: For `Cc1cc(C(=O)CSc2nnc(C3COc4ccccc4O3)n2C)c(C)n1-c1ccc(F)cc1` (centres undefined), which AC50 [1] is on record?
A: 32.6 µM [falling, single point]

Q: Which AC50 [1] does the source give for `COc1ccc(CC(=O)Nc2cccc(-c3ccc4nnc(C)n4n3)c2)cc1OC` here?
A: 3.16 µM [rising, single point]

Q: For `CCCn1cnc2cc(NC(=O)c3cccs3)ccc21`, which AC50 [1] is on record?
A: 2.24 µM [falling, full curve]

Q: With `COC(=O)c1ccc(NC(=O)c2c(NCc3ccc(OC)c(OC)c3)sc3c2CCCC3)cc1` as the compound, how does the AC50 [1] read?
A: 7.94 µM [falling, partial curve]

Q: For `O=C(Nc1ccc2nsnc2c1)C1CC1`, which AC50 [1] is on record?
A: 35.5 µM [falling, single point]

Q: Which AC50 [1] does the source give for `CCOc1ccccc1OCC(=O)NN1Cc2ccccc2C1=N` here?
A: 7.31 µM [falling, partial curve]

Q: Which AC50 [1] does the source give for `O=C(CSc1nc2cc([N+](=O)[O-])ccc2n1-c1ccccc1)NCc1ccc2c(c1)OCO2` here?
A: 0.92 µM [falling, full curve, poor fit]

Q: For `COc1ccccc1N(CC(=O)NCCc1ccccc1)C(=O)CCC(=O)Nc1ccccn1`, which AC50 [1] is on record?
A: 14.1 µM [falling, single point]

Q: For `COc1ccc(C2=CC(=O)C[C@H](c3ccc(OC)c(OC)c3)C2)cc1`, which AC50 [1] is on record?
A: 1.16 µM [rising, full curve, poor fit]

Q: Which AC50 [1] does the source give for `O=C1NC2=C(CCc3ccccc32)C(c2ccc(Br)cc2)N1` (centres undefined) here?
A: 14.6 µM [rising, partial curve, poor fit]

Q: For `O=Cc1ccc(-c2cccc(C(=O)O)c2)o1`, which AC50 [1] is on record?
A: 14.1 µM [falling, single point]

Q: Which AC50 [1] does the source give for `Cc1cccn2c(=O)c3cc(C(=O)N4CCCCC4)sc3nc12` here?
A: 11.2 µM [falling, single point]

Q: Which AC50 [1] does the source give for `COc1ccc(S(=O)(=O)N2CCN(C)CC2)cc1C` here?
A: 16.4 µM [rising, single point]

Q: For `COc1ccc(/C=N/NC(=O)c2cc(O)c(O)c(O)c2)cc1Cn1cc([N+](=O)[O-])cn1`, which AC50 [1] is on record?
A: 11.2 µM [falling, partial curve, poor fit]

Q: With `COc1cccc(/C=C2\SC(=O)N(CCC(=O)N3CCCCC3CCO)C2=O)c1` (centres undefined) as the compound, how does the AC50 [1] read?
A: 14.1 µM [falling, partial curve, poor fit]

Q: With `CCOc1ccc(CCNC(=O)CN2C(=O)NC3(CCc4ccccc43)C2=O)cc1OCC` (centres undefined) as the compound, how does the AC50 [1] read?
A: 8.2 µM [rising, partial curve, poor fit]

Q: With `O=C(CN1CC[n+]2c(-c3ccccc3)csc21)c1ccc(Br)cc1` as the compound, how does the AC50 [1] read?
A: 3.98 µM [falling, full curve, poor fit]

Q: Which AC50 [1] does the source give for `COC(=O)CN1C(=S)N(c2ccc(Cl)cc2)C(=O)C1CC(=O)Nc1ccc(F)cc1` (centres undefined) here?
A: 16.4 µM [falling, single point]

Q: Which AC50 [1] does the source give for `Cc1oc2cc(Br)c(O)c(Br)c2c1-c1ccccc1` here?
A: 15.8 µM [rising, single point]

Q: With `Cc1nc(-c2ccc(NC(=O)c3ccc(Br)o3)cc2)cs1` as the compound, how does the AC50 [1] read?
A: 20 µM [falling, single point]

Q: Which AC50 [1] does the source give for `O=C(Nc1ccc(O)c(C(=O)O)c1)Oc1ccccc1` here?
A: 11.2 µM [falling, partial curve]

Q: For `COc1ccc(N(CC(=O)Nc2cccc(C(C)=O)c2)S(=O)(=O)c2ccc(NC(C)=O)cc2)cc1`, which AC50 [1] is on record?
A: 11.2 µM [rising, partial curve, poor fit]

Q: Which AC50 [1] does the source give for `CCOC(=O)C(NC(=O)c1ccccc1)(N1CCOCC1)C(F)(F)F` (centres undefined) here?
A: 12.6 µM [rising, single point]

Q: Which AC50 [1] does the source give for `COc1cccc(NC(=O)CSc2nncn2-c2ccccn2)c1` here?
A: 15.8 µM [falling, single point]

Q: Which AC50 [1] does the source give for `CCOC(=O)Cc1nnc(NC(=O)CSc2nnc3c(n2)[nH]c2ccccc23)s1` here?
A: 10 µM [falling, partial curve]

Q: Which AC50 [1] does the source give for `COc1ccccc1NC(=O)C(=O)NCC(c1ccco1)N1CCc2ccccc2C1` (centres undefined) here?
A: 4.11 µM [falling, full curve]

Q: Which AC50 [1] does the source give for `C=CCc1cc(OC)ccc1OCC(O)CN1CCN(c2ccc(OC)cc2)CC1` (centres undefined) here?
A: 5.8 µM [falling, single point]

Q: Which AC50 [1] does the source give for `CC(C)(C)Nc1c(N)c(=O)oc2ccccc12` here?
A: 11.6 µM [falling, partial curve, poor fit]

Q: Which AC50 [1] does the source give for `C/C=C/c1ccc(OCCCn2cncn2)c(OC)c1` here?
A: 3.26 µM [rising, partial curve, poor fit]

Q: For `C/C=N/NC(=O)c1cc(Br)ccc1O`, which AC50 [1] is on record?
A: 0.82 µM [falling, full curve]

Q: For `C=C[C@](C)(CC[C@@]1(C)C(C)CC(OC2OC(C)C(OC3OC(COC(C)=O)C(O)C(O)C3O)C(O)C2O)[C@@]2(C)C(C)=CCCC12)OC1OC(C)C(O[C@@H]2O[C@@H](C)C(O)C(O)[C@H]2O)C(O)C1O` (some centres undefined), which AC50 [1] is on record?
A: 20.6 µM [rising, single point]

Q: For `COc1cccc(NC(=O)c2sc3nc(N4CCOCC4)c4c(c3c2N)CCCC4)c1`, which AC50 [1] is on record?
A: 14.1 µM [falling, partial curve]

Q: For `COc1ccc(/C=C2\CCC(C3CCCC3)C2=O)c(OC)c1OC` (centres undefined), which AC50 [1] is on record?
A: 2.24 µM [rising, full curve, poor fit]

Q: With `Cc1ccc(NC(=O)NC(=O)CN2C(=O)NC3(CCc4ccccc43)C2=O)c(C)c1` (centres undefined) as the compound, how does the AC50 [1] read?
A: 8.2 µM [falling, partial curve, poor fit]

Q: With `CCN(CC)CCCNC(=O)CNC(=O)c1nn(-c2ccc(OC)cc2)c(=O)c2ccccc12` as the compound, how does the AC50 [1] read?
A: 12.6 µM [falling, partial curve, poor fit]

Q: For `O=C(Nc1cccc(S(=O)(=O)N2CCCCCC2)c1)c1ccc2c(c1)OCO2`, which AC50 [1] is on record?
A: 25.9 µM [falling, single point]

Q: Which AC50 [1] does the source give for `CCCc1nnc(NC(=O)CCC(=O)N2CCN(CCOc3ccc(C)cc3)CC2)s1` here?
A: 1.3 µM [falling, full curve]

Q: Which AC50 [1] does the source give for `COc1ccc(-c2nc3ccccc3c(C(=O)Nc3ccc(S(=O)(=O)Nc4cc(C)on4)cc3)c2C)cc1` here?
A: 3.55 µM [falling, full curve]

Q: With `CCN(CC)S(=O)(=O)c1ccc(Br)c(OC)c1` as the compound, how does the AC50 [1] read?
A: 29.1 µM [falling, single point]

Q: Which AC50 [1] does the source give for `Cc1ccc(C)c(NC(=O)CCN2C(=O)[C@@H]3Cc4ccccc4CN3C2=O)c1` here?
A: 2.82 µM [rising, single point]

Q: Which AC50 [1] does the source give for `O=C(Nc1nc2ccccc2[nH]1)c1ccc(Cl)c([N+](=O)[O-])c1` here?
A: 14.1 µM [falling, partial curve, poor fit]

Q: For `N#Cc1c(-c2cccs2)nc(SCc2ccc(Cl)cc2)[nH]c1=O`, which AC50 [1] is on record?
A: 35.5 µM [falling, single point]

Q: With `CC(=O)CCC(=O)OCC(=O)Nc1ccc(SC(F)F)cc1` as the compound, how does the AC50 [1] read?
A: 3.55 µM [falling, single point]
